Assay results as given in patent US20130210167A1, “IMMUNOASSAY FOR PYRROLIDINOPHENONES” (RANDOX LABORATORIES LIMITED, priority 2012, published 2013).

Tested on: polyclonal antibody raised to Immunogen IV
Test: Competitive biochip immunoassay of pyrrolidinophenones and potential cross-reactants (Evidence Investigator)
Assay type: binding, sheep

Q: `CN1CC[C@]23c4c5ccc(O)c4O[C@H]2[C@@H](O)C=C[C@H]3[C@H]1C5.O=S(=O)(O)O` [Morphine sulphate] was tested. Which “% Cross-reactivity” value did it give?
A: <1%
